{"source": "patent US20090030403A1", "about": "“Methods and Systems for Attenuating the Tolerance Response to a Drug” (priority 2007, published 2009)", "origin": "cited, not measured here", "conditions": "in vivo", "note": "For at least one compound, name, drawing or mass did not settle the structure."}
{"smiles": "CCC1(c2ccccc2)C(=O)NC(=O)NC1=O", "note": "[Phenobarbital]", "values": [{"measurement": "Minimum plasma concentration for prophylaxis against febrile convulsions", "value": "about 15 μg/ml"}]}
